Test results: publication PMC8511950
These are yes or no findings as the source states them, for the method shown. In cells and extracts the contact can be indirect. A yes stands for co-enrichment or nearness to the bait. Other partners may have been found.

Sequences of proteins named here, by UniProt entry; tags and fusion partners are left off.
UniProt P16370: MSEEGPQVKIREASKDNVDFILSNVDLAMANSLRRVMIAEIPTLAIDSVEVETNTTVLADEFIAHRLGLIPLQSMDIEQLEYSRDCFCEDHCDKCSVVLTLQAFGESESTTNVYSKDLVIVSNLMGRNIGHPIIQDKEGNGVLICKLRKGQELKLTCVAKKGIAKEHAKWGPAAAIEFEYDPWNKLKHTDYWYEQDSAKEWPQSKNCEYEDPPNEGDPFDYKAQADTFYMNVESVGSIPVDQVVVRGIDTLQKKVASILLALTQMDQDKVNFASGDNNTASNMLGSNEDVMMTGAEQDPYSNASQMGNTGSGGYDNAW

B1: Ctr9 (protein, UniProt P89105 1-1077)
chain: MTNAMKVEGYPSMEWPTSLDIPLKASEELVGIDLETDLPDDPTDLKTLLVEENSEKEHWLTIALAYCNHGKTNEGIKLIEMALDVFQNSERASLHTFLTWAHLNLAKGQSLSVETKEHELTQAELNLKDAIGFDPTWIGNMLATVELYYQRGHYDKALETSDLFVKSIHAEDHRSGRQSKPNCLFLLLRAKLLYQKKNYMASLKIFQELLVINPVLQPDPRIGIGLCFWQLKDSKMAIKSWQRALQLNPKNTSASILVLLGEFRESFTNSTNDKTFKEAFTKALSDLNNIFSENQHNPVLLTLLQTYYYFKGDYQTVLDIYHHRILKMSPMIAKIVLSESSFWCGRAHYALGDYRKSFIMFQESLKKNEDNLLAKLGLGQTQIKNNLLEESIITFENLYKTNESLQELNYILGMLYAGKAFDAKTAKNTSAKEQSNLNEKALKYLERYLKLTLATKNQLVISRAYLVISQLYELQNQYKTSLDYLSKALEEMEFIKKEIPLEVLNNLACYHFINGDFIKADDLFKQAKAKVSDKDESVNITLEYNIARTNEKNDCEKSESIYSQVTSLHPAYIAARIRNLYLKFAQSKIEDSDMSTEMNKLLDLNKSDLEIRSFYGWYLKNSKERKNNEKSTTHNKETLVKYNSHDAYALISLANLYVTIARDGKKSRNPKEQEKSKHSYLKAIQLYQKVLQVDPFNIFAAQGLAIIFAESKRLGPALEILRKVRDSLDNEDVQLNLAHCYLEMREYGKAIENYELVLKKFDNEKTRPHILNLLGRAWYARAIKERSVNFYQKALENAKTALDLFVKESSKSKFIHSVKFNIALLHFQIAETLRRSNPKFRTVQQIKDSLEGLKEGLELFRELNDLKEFNMIPKEELEQRIQLGETTMKSALERSLNEQEEFEKEQSAKIDEARKILEENELKEQGWMKQEEEARRLKLEKQAEEYRKLQDEAQKLIQEREAMAISEHNVKDDSDLSDKDNEYDEEKPRQKRKRSTKTKNSGESKRRKAAKKTLSDSDEDDDDVVKKPSHNKGKKSQLSNEFIEDSDEEEAQMSGSEQNKNDDNDENNDNDDNDGLF
B2: Trm2 (protein, UniProt P33753 1-639)
chain: MYEQFEFSFFFFENSDNKVKYKAHLISSIKRWSIITCMRCFWTVQKSIFKARFFACRNFVKKHNYKLISTMTGSTEMVPPTMKHTVDNKRLSSPLTDSGNRRTKKPKLRKYKAKKVETTSPMGVLEFEVNDLLKSQNLSREQVLNDVTSILNDKSSTDGPIVLQYHREVKNVKVLEITSNGNGLALIDNPVETEKKQVVIIPFGLPGDVVNIKVFKTHPYYVESDLLDVVEKSPMRRDDLIRDKYFGKSSGSQLEFLTYDDQLELKRKTIMNAYKFFAPRLVAEKLLPPFDTTVASPLQFGYRTKITPHFDMPKRKQKELSVRPPLGFGQKGRPQWRKDTLDIGGHGSILDIDECVLATEVLNKGLTNERRKFEQEFKNYKKGATILLRENTTILDPSKPTLEQLTEEASRDENGDISYVEVEDKKNNVRLAKTCVTNPRQIVTEYVDGYTFNFSAGEFFQNNNSILPIVTKYVRDNLQAPAKGDDNKTKFLVDAYCGSGLFSICSSKGVDKVIGVEISADSVSFAEKNAKANGVENCRFIVGKAEKLFESIDTPSENTSVILDPPRKGCDELFLKQLAAYNPAKIIYISCNVHSQARDVEYFLKETENGSAHQIESIRGFDFFPQTHHVESVCIMKRI
B3: Cet1 (enzyme, UniProt O13297 1-549)
chain: MSYTDNPPQTKRALSLDDLVNHDENEKVKLQKLSEAANGSRPFAENLESDINQTETGQAAPIDNYKESTGHGSHSQKPKSRKSSNDDEETDTDDEMGASGEINFDSEMDFDYDKQHRNLLSNGSPPMNDGSDANAKLEKPSDDSIHQNSKSDEEQRIPKQGNEGNIASNYITQVPLQKQKQTEKKIAGNAVGSVVKKEEEANAAVDNIFEEKATLQSKKNNIKRDLEVLNEISASSKPSKYRNVPIWAQKWKPTIKALQSINVKDLKIDPSFLNIIPDDDLTKSVQDWVYATIYSIAPELRSFIELEMKFGVIIDAKGPDRVNPPVSSQCVFTELDAHLTPNIDASLFKELSKYIRGISEVTENTGKFSIIESQTRDSVYRVGLSTQRPRFLRMSTDIKTGRVGQFIEKRHVAQLLLYSPKDSYDVKISLNLELPVPDNDPPEKYKSQSPISERTKDRVSYIHNDSCTRIDITKVENHNQNSKSRQSETTHEVELEINTPALLNAFDNITNDSKEYASLIRTFLNNGTIIRRKLSSLSYEIFEGSKKVM
B4: Cdc73 (protein, UniProt Q06697 1-393)
chain: MANSLDRLREHLKNGDKLVLKNNEGQSTDDITKATMVETLSSDGSTQDSFPLNEETEIEIDGSLVQLRIIVHCWMNKDSSAADYLADCQNKQLTNVSFLQRTDLINWLSGNTESSQYLKAPGQKGETSDKVDIENKTLAGELSTVKSTTSASLENDSEVSDPVVVETMKHERILVDHNSALRGAKPINFGYLIKDAELKLVQSIKGSLRGSKLPPGHKGAHGRISKTNGSSGGPRKDPIILIPSAASSILTVANIKQFLLESKYVNPRNLPSVPNGLVNIEKNFERISRPIRFIIVDNTRMFTKPEYWDRVVAIFTTGHTWQFNNYQWNSPQELFQRCKGYYFHFAGDSVPQHVQQWNVEKVELDKNKRFKDVEVVRYFWHSLEKELISRGYR

Target: Rpb3 with C-terminal BioTAP tag (S. cerevisiae) (UniProt P16370)
Test: affinity purification with mass spectrometry; BioTAP-XL two-step purification of Rpb3-BioTAP (IgG beads, then streptavidin agarose) from 1% formaldehyde-cross-linked wildtype and spt6-1004 cells shifted to 37 °C for 80 min; on-bead trypsin digestion, TMT labelling, MS3 quantification; untagged wildtype and spt6-1004 cells as controls; FDR cutoff 0.05

Row | Binder | binding
1 | B1 | binds
2 | B2 | binds
3 | B3 | binds
4 | B4 | binds
